Values from PubChem BioAssay AID1159590 (NIAID, 2016)
Shown is a random part of 756 deposited reagents. In the full data, 128 (17%) were called active. 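Calls are two-sided: both reduced and increased p65 nuclear entry count as active.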 Reagents against one gene are numbered here. Not given: the amount of reagent.

- Assay: 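Which core TLR signalling genes NF-kB activation by Pam3CSK4 depends on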
- System: mouse RAW264.7 macrophage reporter cells expressing GFP-p65 and a Tnf promoter-mCherry
- Knock-down reagent: single siRNA against mouse genes
- Duration: 48 to 72 hours after siRNA transfection, then 40 minutes of ligand
- Challenge: Pam3CSK4 (TLR2/1 agonist) for 40 minutes before fixation; dose not given
- Measured: 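GFP-p65 nuclear to cytoplasmic intensity ratio from imaging, normalised per plate by median and MAD, given as robust z against negative controls, mean of replicates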
- Direction: p65 nuclear entry z-score: higher = more p65 moved into nuclei than in negative-control wells
- Hit rule: In these data the active calls have p65 nuclear entry z-score, replicate mean at about -1.5 or lower, or at about 1.5 or higher
- Meaning of the calls: active = strong change, up or down; inactive = little change

Target gene	reagent no.	p65 nuclear entry z-score, replicate mean	Call
Dab2ip (disabled 2 interacting protein)	1	-0.834	inactive
Dab2ip (disabled 2 interacting protein)	2	0.503	inactive
Dab2ip (disabled 2 interacting protein)	3	-0.979	inactive
Dab2ip (disabled 2 interacting protein)	4	6.1	active
Dab2ip (disabled 2 interacting protein)	5	1.96	active
Dab2ip (disabled 2 interacting protein)	6	-0.654	inactive
Nfkbie	1	0.144	inactive
Nfkbie	2	-0.637	inactive
Nfkbie	3	-1.02	inactive
Nfkbie	4	1.31	inactive
Nfkbie	5	-0.829	inactive
Nfkbie	6	-0.646	inactive
Pik3r2 (phosphoinositide-3-kinase regulatory subunit 2)	1	-0.184	inactive
Pik3r2 (phosphoinositide-3-kinase regulatory subunit 2)	2	0.319	inactive
Pik3r2 (phosphoinositide-3-kinase regulatory subunit 2)	3	-2.48	active
Pik3r2 (phosphoinositide-3-kinase regulatory subunit 2)	4	0.444	inactive
Pik3r2 (phosphoinositide-3-kinase regulatory subunit 2)	5	0.623	inactive
Pik3r2 (phosphoinositide-3-kinase regulatory subunit 2)	6	0.707	inactive
Map3k7 (mitogen-activated protein kinase kinase kinase 7)	1	-0.953	inactive
Map3k7 (mitogen-activated protein kinase kinase kinase 7)	2	-0.748	inactive
Map3k7 (mitogen-activated protein kinase kinase kinase 7)	3	-1.29	inactive
Map3k7 (mitogen-activated protein kinase kinase kinase 7)	4	-1.15	inactive
Map3k7 (mitogen-activated protein kinase kinase kinase 7)	5	-0.122	inactive
Map3k7 (mitogen-activated protein kinase kinase kinase 7)	6	-0.536	inactive
Ccl3 (C-C motif chemokine ligand 3)	1	-1.94	active
Ccl3 (C-C motif chemokine ligand 3)	2	0.0867	inactive
Ccl3 (C-C motif chemokine ligand 3)	3	-0.481	inactive
Ccl3 (C-C motif chemokine ligand 3)	4	0.163	inactive
Ccl3 (C-C motif chemokine ligand 3)	5	-0.591	inactive
Ccl3 (C-C motif chemokine ligand 3)	6	5.37	active
Irak4 (interleukin-1 receptor-associated kinase 4)	1	-1.05	inactive
Irak4 (interleukin-1 receptor-associated kinase 4)	2	-2.77	active
Irak4 (interleukin-1 receptor-associated kinase 4)	3	-2.27	active
Irak4 (interleukin-1 receptor-associated kinase 4)	4	-1.42	inactive
Irak4 (interleukin-1 receptor-associated kinase 4)	5	3.16	active
Irak4 (interleukin-1 receptor-associated kinase 4)	6	1.43	inactive
Pik3ca	1	-0.504	inactive
Pik3ca	2	0.019	inactive
Pik3ca	3	0.26	inactive
Pik3ca	4	-1.57	active
Pik3ca	5	-0.644	inactive
Pik3ca	6	-0.675	inactive
Map2k4 (mitogen-activated protein kinase kinase 4)	1	1	inactive
Map2k4 (mitogen-activated protein kinase kinase 4)	2	0.499	inactive
Map2k4 (mitogen-activated protein kinase kinase 4)	3	0.184	inactive
Map2k4 (mitogen-activated protein kinase kinase 4)	4	-1.07	inactive
Map2k4 (mitogen-activated protein kinase kinase 4)	5	0.414	inactive
Map2k4 (mitogen-activated protein kinase kinase 4)	6	-0.893	inactive
Tab2 (TGF-beta activated kinase 1/MAP3K7 binding protein 2)	1	-0.638	inactive
Tab2 (TGF-beta activated kinase 1/MAP3K7 binding protein 2)	2	-0.368	inactive
Tab2 (TGF-beta activated kinase 1/MAP3K7 binding protein 2)	3	-0.0452	inactive
Tab2 (TGF-beta activated kinase 1/MAP3K7 binding protein 2)	4	-0.989	inactive
Tab2 (TGF-beta activated kinase 1/MAP3K7 binding protein 2)	5	0.375	inactive
Tab2 (TGF-beta activated kinase 1/MAP3K7 binding protein 2)	6	-0.833	inactive
Mapk1 (mitogen-activated protein kinase 1)	1	-0.992	inactive
Mapk1 (mitogen-activated protein kinase 1)	2	-1.21	inactive
Mapk1 (mitogen-activated protein kinase 1)	3	-1.14	inactive
Mapk1 (mitogen-activated protein kinase 1)	4	-0.577	inactive
Mapk1 (mitogen-activated protein kinase 1)	5	-0.0217	inactive
Mapk1 (mitogen-activated protein kinase 1)	6	-0.0467	inactive
Mapk14 (mitogen-activated protein kinase 14)	1	0.459	inactive
Mapk14 (mitogen-activated protein kinase 14)	2	-0.258	inactive
Mapk14 (mitogen-activated protein kinase 14)	3	-0.238	inactive
Mapk14 (mitogen-activated protein kinase 14)	4	-1.28	inactive
Mapk14 (mitogen-activated protein kinase 14)	5	-1.1	inactive
Mapk14 (mitogen-activated protein kinase 14)	6	0.311	inactive
Sigirr	1	-1.67	active
Sigirr	2	-2.15	active
Sigirr	3	-0.691	inactive
Sigirr	4	-0.244	inactive
Sigirr	5	-0.839	inactive
Sigirr	6	-0.514	inactive
Elk4 (ETS transcription factor ELK4)	1	-1.08	inactive
Elk4 (ETS transcription factor ELK4)	2	0.34	inactive
Elk4 (ETS transcription factor ELK4)	3	0.249	inactive
Elk4 (ETS transcription factor ELK4)	4	0.28	inactive
Elk4 (ETS transcription factor ELK4)	5	-0.274	inactive
Elk4 (ETS transcription factor ELK4)	6	-1.01	inactive
